# The other results are listed elsewhere or left out.
# Target: T1, OsSMF1 (Oryza sativa, UniProt Q6ZLB0 1-436)
# T1 sequence: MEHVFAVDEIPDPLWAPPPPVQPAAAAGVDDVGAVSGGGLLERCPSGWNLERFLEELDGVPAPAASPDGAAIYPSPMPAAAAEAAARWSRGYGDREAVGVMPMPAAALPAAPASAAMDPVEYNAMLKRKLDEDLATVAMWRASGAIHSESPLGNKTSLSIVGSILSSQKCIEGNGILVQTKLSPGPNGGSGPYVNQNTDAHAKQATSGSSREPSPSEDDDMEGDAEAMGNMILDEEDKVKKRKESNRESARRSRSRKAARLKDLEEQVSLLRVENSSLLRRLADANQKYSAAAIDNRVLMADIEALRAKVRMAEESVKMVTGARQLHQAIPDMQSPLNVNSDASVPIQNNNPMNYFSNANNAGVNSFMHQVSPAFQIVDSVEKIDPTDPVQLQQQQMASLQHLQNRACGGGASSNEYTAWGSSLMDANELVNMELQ
# Assay: protein-binding microarray (RPBM); PBS, 2% BSA, 51.3 ng/ul salmon testes DNA, 50 uM zinc acetate, 200 nM TF, 25 C, 1 h; high values mean tight binding
# Details: protein: recombinant; tags: N-terminal polyhistidine and DsRed monomer fusion (pET32a); chain copies: 2; label: CyDye5-dUTP incorporated in the synthesized complementary strand; 3' TTTTT single-stranded linker to array surface; dsDNA, one strand shown
# How it was run: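 Transcription factors were each fused at the N-terminus to a polyhistidine tag plus DsRed and expressed in E. coli BL21-CodonPlus before Ni–NTA purification. Binding to a double-stranded custom Agilent array was carried out with 200 nM protein at 25 °C for 1 h in PBS, 2% BSA, salmon testes DNA and 50 µM zinc acetate. The binding signal is per-feature fluorescence intensity, in arbitrary units, on an Axon 4000B scanner.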
row,Sequence,binding signal
1,ATAGTACAGATCCAACGGCGATGACGTGAACATCCACCCTCGGAGTCACCTAGTGCAG,5070 fluorescence intensity (a.u.)
2,ACTGGGGAAGGAATCACACCGTGGGCATGCTGTTGACTAGCGGAGTCACCTAGTGCAG,3370 fluorescence intensity (a.u.)
3,GCAGAAAAGACTTCACGCACAGATGGTTTATTGGAGTTGGCGGAGTCACCTAGTGCAG,3790 fluorescence intensity (a.u.)
4,CCACCCTCGCGCGGACGCGGCGCCCCTCCCCTTTGGCGCCCGGAGTCACCTAGTGCAG,3300 fluorescence intensity (a.u.)
5,ATTCATATATATGTGTGCCTAGATTCATTAACATCTATATCGGAGTCACCTAGTGCAG,3440 fluorescence intensity (a.u.)
6,CTGCATGGAAGGGGTACAGTTCTTTGCCGAACGGGAGTCCCGGAGTCACCTAGTGCAG,24300 fluorescence intensity (a.u.)
7,GGCGGCCTAAGAGCATTTGTAGGAGTCCCACGTGGCAGCTCGGAGTCACCTAGTGCAG,23100 fluorescence intensity (a.u.)
8,AAATTACCACAATAGGTTTATGTTAGCCTGGTGGTCATGCCGGAGTCACCTAGTGCAG,4480 fluorescence intensity (a.u.)
9,CGCTTTAACATTTAAATTTAGCTTTAAAAGTTTATTATGGCGGAGTCACCTAGTGCAG,15300 fluorescence intensity (a.u.)
10,ACCAACACCCGCCTCGCCGCCACCGCCACCTCCCCTTCTTCGGAGTCACCTAGTGCAG,4710 fluorescence intensity (a.u.)
11,AGATGGAGCAGGCATCAACTGGTGTTGGTCCTATGGACCGCGGAGTCACCTAGTGCAG,3320 fluorescence intensity (a.u.)
12,AACTATAGATCCAAGTGAGGAAGCTATATTCCCAAATTTTCGGAGTCACCTAGTGCAG,46000 fluorescence intensity (a.u.)
13,CTATAATTTAAACATGTAAAGTTTACGTGTATATAAATTTCGGAGTCACCTAGTGCAG,3160 fluorescence intensity (a.u.)
14,GGACAGGCTACCTGCAGTGATGAACGGCGTCGATCACCACCGGAGTCACCTAGTGCAG,14900 fluorescence intensity (a.u.)
15,GATCGATGGAGTGAGACGCATCAGGTTGCTTCCGGCGACGCGGAGTCACCTAGTGCAG,10900 fluorescence intensity (a.u.)
16,CAACGCACGCACGCGCCATCACCACCACCTCGACGCCGGCCGGAGTCACCTAGTGCAG,3570 fluorescence intensity (a.u.)
17,AAATAGGAGTTACATTTCGTACGTGTTATCCAACGGCCCACGGAGTCACCTAGTGCAG,4280 fluorescence intensity (a.u.)
18,TAACTAATTACACATATTGCGTGTAAATTGCGAGACAAATCGGAGTCACCTAGTGCAG,4240 fluorescence intensity (a.u.)
19,TGCACGCTAATTTGCCTTGCTGCTGCTGCTACTAGGGCGGCGGAGTCACCTAGTGCAG,3450 fluorescence intensity (a.u.)
20,CAAGTGTTGCAAGTGCATGCGCGTCACTGGTTTGCGGCGGCGGAGTCACCTAGTGCAG,4820 fluorescence intensity (a.u.)
21,ACACACTTTTCGCCACCGTGGTGAGATGATGATTACTCATCGGAGTCACCTAGTGCAG,8100 fluorescence intensity (a.u.)
22,CTTGGTGGACCGCGTGATGACGTCAGCAGCGGCTCGGCGACGGAGTCACCTAGTGCAG,14700 fluorescence intensity (a.u.)
23,GTATTCCAGTTGGCAGCCCAGTTATAGTATCTGTATTTGTCGGAGTCACCTAGTGCAG,4030 fluorescence intensity (a.u.)

# Taken from above.
# Under binding signal, AACTATAGATCCAAGTGAGGAAGCTATATTCCCAAATTTTCGGAGTCACCTAGTGCAG shows 46000 fluorescence intensity (a.u.)
# Under binding signal, AGATGGAGCAGGCATCAACTGGTGTTGGTCCTATGGACCGCGGAGTCACCTAGTGCAG shows 3320 fluorescence intensity (a.u.)

# — PMC7819943, “Rice protein-binding microarrays: a tool to detect cis-acting elements near promoter regions in rice”
